Source: US20200182861A1, “METHOD FOR DIFFERENTIATION OF PLURIPOTENT STEM CELLS INTO VASCULAR BED CELLS” (Hoffmann-La Roche Inc., priority 2011, published 2020)
At least one structure is not confirmed: it was looked up by name or label, or the drawing left a doubt.

Tested on: β-catenin-mediated TCF/LEF transcription
Assay: TCF/LEF reporter assay in human PA-1 reporter cells
Assay type: cell-based
Details: concentration dependent administration
Experimental: FIG. 19: Compound selection. TCF/LEF reporter assay in human PA-1 reporter cells (DeAlmeida et al., 2007). After the treatment of reporter cells with GSk3 inhibitors at indicated concentrations β-catenin-mediated TCF/LEF transcriptional activity was measured as luciferase activity. The Compound Cp21R7 induced highest luciferase activity at a concentration of 3 μM.
The potential of the most widely used commercial GSK30 inhibitors and CP21R7 to activate β-catenin-mediated TCF/LEF transcription in human PA-1 reporter cells (DeAlmeida et al., 2007) was evaluated. […] Unmodified PA-1 cells are used to measure cellular viability via ATP levels and GLI-luciferase responsive reporter PA-1 cells as counter screen to monitor changes in general transcriptional activity. […] On the outcome of the β-Catenin reporter assay, three GSk3β inhibitors namely BIO, CHIR and CP were exploited for their potential to drive vascular lineage commitment of human PSCs. In addition to the listed inhibitors we include SB216763 (SB) due to its structure similarity to CP (see FIG. 18). […]

With `C=C[C@@]1(C)CC(=O)[C@]2(O)[C@@]3(C)[C@@H](O)CCC(C)(C)[C@@H]3[C@H](O)[C@H](OC(C)=O)[C@@]2(C)O1` [Forskolin, (3R)-(6aalphaH)Dodecahydro-6beta, 10alpha, 10balpha-trihydroxy-3beta,4abeta,7,7,10abeta-pentamethyl-1-oxo-3-vinyl-1H-naphtho[2,1-b]pyran-5beta-yl acetate] the TCF/LEF luciferase expression was “did not induce luciferase expression”.
